Experimental data taken from PMC1249560.
These are yes or no findings as the source states them, for the method shown. In cells and extracts the contact can be indirect. Binding calls can cover weak binding; strength is not graded here.

Target: T1, Hermansky-Pudlak syndrome type-3 protein (HPS3) (human (endogenous in primary epidermal melanocytes)) (UniProt Q969F9)
T1 sequence: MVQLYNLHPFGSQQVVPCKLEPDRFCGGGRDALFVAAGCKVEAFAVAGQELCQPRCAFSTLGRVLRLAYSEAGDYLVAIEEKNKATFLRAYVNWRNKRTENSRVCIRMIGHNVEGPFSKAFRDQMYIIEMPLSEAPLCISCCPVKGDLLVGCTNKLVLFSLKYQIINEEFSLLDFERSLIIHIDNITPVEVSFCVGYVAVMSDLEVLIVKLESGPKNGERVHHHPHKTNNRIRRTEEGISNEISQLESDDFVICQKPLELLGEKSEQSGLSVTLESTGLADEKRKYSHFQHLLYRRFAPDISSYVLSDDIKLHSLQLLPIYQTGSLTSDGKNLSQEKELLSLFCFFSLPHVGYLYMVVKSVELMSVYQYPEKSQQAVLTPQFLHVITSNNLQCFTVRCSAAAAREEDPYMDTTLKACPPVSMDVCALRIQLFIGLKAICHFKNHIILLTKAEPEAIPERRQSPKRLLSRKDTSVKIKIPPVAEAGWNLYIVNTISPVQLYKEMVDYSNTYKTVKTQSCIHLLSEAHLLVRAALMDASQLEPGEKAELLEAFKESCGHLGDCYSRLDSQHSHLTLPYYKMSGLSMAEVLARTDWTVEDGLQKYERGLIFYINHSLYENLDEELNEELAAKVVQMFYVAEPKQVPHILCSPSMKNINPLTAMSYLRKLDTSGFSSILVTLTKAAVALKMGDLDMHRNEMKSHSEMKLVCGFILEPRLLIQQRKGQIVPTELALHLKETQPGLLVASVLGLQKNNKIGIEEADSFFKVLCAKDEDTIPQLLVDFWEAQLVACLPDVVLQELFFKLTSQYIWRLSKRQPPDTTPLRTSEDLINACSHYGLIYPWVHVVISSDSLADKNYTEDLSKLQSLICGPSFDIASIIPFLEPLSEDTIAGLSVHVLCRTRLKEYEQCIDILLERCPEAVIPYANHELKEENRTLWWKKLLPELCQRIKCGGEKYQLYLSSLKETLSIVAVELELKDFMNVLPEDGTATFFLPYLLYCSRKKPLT
Assay: co-IP; lysates of normal human melanocytes in PBS with 1% NP-40 and protease inhibitors; precipitated with rabbit polyclonal HPS3 peptide antibody and protein A/G agarose; blotted with mouse monoclonal anti-clathrin heavy chain antibodies; HPS3 null melanocyte lysate as control

Substance: clathrin (detected by antibodies to its heavy chain)
- binding: binds
